# Literature values, collected in patent US20080214618A1, “Gastric Therapies Amd Compositions Therefor” (Auckland Uniservices Limited, priority 2004, published 2008).
# At least one structure is not confirmed: it was looked up by name or label, or the drawing left a doubt.
# Tested on: H. pylori
# Conditions: Midolo et al 1997; Jonkers et al 1999; cited from earlier work
structure (smiles),measurement,value
"COc1ccc2[nH]c([S+]([O-])Cc3ncc(C)c(OC)c3C)nc2c1 (stereo not shown) [Omeprazole, omeprazole]",bactericidal action on H. pylori by itself,slight bactericidal action
